Data published in the supplement of paper PMC12823440, “Inhibitors supercharge kinase turnover through native proteolytic circuits” (Nature, 2025).
Where a name gives a salt, the structure may show the parent alone. The list shows a part of the results. The calls rarely recur for the same compound in another form.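 Kinases, fused to nanoluciferase, were expressed in K562 cells; luminescence was measured every 4 h from 2 to 18 h as percent of control (DMSO = 100%, positive control = 0%). A time point is decreased if signal falls significantly (2 sigma). Hits were called by the authors by a rule that is not shown; the count of time points alone does not decide it.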

The chains behind the UniProt entries cited, without tags or fusion partners. Where a name states a change or a piece, a line headed by the entry shows the natural chain unless it says otherwise.
UniProt P07949, whole entry, looked up: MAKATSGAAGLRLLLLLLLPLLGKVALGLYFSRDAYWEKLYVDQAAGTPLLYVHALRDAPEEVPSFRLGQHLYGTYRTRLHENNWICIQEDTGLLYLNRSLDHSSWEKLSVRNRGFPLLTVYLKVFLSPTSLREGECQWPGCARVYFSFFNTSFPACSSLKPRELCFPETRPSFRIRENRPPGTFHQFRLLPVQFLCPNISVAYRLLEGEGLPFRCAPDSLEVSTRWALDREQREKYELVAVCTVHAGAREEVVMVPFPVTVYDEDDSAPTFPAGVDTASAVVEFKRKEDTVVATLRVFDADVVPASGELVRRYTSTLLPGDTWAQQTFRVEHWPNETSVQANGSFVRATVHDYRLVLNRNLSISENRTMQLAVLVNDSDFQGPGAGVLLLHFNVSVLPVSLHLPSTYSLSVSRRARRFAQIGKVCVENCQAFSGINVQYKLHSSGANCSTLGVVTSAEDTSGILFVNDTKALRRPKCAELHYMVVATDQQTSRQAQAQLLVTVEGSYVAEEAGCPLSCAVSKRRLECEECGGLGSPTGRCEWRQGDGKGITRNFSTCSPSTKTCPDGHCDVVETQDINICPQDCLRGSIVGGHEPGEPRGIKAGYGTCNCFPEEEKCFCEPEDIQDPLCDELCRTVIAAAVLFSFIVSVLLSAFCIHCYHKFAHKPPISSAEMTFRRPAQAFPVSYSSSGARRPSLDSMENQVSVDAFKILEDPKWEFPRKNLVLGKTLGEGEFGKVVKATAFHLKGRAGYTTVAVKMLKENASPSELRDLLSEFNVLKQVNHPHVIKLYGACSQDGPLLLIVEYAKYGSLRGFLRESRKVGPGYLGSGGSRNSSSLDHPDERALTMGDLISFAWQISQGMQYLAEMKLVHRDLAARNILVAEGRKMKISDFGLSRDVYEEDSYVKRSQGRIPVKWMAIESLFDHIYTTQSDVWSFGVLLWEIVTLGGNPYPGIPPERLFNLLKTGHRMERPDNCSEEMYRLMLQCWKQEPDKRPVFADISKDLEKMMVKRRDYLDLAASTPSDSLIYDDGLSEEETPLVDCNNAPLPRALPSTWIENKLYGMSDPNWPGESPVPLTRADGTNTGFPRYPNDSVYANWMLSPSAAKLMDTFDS
UniProt P07949, whole entry M918T, looked up: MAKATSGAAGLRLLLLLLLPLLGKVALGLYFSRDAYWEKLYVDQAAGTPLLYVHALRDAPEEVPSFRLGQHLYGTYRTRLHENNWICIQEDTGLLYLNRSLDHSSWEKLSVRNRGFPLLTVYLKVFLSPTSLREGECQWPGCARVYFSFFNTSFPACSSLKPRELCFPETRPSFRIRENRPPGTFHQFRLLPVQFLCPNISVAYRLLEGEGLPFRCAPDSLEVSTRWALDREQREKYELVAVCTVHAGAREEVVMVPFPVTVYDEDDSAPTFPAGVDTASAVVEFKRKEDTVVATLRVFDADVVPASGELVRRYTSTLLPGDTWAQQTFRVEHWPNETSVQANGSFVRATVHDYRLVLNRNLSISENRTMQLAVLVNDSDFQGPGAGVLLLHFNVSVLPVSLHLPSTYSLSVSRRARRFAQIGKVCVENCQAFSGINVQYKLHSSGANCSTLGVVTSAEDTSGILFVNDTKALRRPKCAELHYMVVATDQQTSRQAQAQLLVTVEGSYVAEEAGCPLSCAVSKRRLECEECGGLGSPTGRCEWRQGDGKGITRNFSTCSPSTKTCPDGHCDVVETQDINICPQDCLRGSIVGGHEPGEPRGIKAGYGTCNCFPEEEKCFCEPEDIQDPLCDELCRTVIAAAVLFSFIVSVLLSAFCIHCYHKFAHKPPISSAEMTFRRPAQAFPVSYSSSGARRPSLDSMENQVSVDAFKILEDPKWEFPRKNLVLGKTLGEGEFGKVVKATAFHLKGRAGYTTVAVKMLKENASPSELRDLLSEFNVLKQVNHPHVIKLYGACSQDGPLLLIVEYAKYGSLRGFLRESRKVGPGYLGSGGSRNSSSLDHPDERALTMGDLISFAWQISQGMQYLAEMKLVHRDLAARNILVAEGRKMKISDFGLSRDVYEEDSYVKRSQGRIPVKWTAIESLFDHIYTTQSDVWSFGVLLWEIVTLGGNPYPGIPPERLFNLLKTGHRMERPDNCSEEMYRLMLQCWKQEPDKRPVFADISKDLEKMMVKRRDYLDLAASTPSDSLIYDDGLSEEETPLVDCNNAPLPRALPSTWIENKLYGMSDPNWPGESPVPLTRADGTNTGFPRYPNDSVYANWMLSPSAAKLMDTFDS
UniProt Q13546: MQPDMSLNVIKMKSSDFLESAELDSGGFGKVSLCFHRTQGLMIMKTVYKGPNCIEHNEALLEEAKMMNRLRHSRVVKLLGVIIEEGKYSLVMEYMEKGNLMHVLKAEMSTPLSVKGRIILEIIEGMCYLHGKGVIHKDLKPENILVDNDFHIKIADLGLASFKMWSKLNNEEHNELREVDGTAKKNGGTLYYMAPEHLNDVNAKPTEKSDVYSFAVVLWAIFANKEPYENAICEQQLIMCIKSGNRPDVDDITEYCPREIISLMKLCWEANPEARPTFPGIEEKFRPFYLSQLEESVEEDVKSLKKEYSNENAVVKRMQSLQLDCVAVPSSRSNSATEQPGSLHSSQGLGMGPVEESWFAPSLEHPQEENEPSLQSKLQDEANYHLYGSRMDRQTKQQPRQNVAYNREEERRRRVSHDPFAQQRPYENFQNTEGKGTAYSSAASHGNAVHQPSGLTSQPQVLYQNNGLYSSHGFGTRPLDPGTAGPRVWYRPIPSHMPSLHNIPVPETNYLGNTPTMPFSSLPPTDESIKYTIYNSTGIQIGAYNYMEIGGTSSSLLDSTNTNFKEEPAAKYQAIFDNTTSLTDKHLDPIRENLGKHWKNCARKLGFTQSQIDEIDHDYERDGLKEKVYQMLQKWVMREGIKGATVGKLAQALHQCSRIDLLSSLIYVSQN
UniProt Q9NYA1, whole entry: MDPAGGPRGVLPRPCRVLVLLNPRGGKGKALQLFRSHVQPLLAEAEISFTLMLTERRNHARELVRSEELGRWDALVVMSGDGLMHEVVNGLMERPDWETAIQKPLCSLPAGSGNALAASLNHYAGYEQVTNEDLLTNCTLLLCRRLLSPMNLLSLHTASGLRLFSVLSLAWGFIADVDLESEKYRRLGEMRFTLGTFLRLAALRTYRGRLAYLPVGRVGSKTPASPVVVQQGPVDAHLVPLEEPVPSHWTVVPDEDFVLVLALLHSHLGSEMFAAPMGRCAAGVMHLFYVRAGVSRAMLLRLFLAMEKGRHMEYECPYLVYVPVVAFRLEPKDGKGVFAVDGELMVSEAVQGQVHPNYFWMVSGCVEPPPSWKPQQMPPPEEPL
UniProt Q9Y6E0: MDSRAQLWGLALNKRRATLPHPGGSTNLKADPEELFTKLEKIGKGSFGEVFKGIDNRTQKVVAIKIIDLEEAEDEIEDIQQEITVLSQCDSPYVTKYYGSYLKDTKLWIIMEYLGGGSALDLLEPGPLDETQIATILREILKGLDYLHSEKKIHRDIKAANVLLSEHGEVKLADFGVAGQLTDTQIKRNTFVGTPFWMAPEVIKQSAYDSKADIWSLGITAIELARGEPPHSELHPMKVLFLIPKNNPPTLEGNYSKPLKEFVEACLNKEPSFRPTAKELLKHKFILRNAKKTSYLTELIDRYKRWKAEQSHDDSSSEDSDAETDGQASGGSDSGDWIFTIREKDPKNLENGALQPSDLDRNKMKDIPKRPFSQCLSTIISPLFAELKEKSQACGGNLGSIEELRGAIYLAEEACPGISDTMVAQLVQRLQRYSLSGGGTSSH
UniProt P42680: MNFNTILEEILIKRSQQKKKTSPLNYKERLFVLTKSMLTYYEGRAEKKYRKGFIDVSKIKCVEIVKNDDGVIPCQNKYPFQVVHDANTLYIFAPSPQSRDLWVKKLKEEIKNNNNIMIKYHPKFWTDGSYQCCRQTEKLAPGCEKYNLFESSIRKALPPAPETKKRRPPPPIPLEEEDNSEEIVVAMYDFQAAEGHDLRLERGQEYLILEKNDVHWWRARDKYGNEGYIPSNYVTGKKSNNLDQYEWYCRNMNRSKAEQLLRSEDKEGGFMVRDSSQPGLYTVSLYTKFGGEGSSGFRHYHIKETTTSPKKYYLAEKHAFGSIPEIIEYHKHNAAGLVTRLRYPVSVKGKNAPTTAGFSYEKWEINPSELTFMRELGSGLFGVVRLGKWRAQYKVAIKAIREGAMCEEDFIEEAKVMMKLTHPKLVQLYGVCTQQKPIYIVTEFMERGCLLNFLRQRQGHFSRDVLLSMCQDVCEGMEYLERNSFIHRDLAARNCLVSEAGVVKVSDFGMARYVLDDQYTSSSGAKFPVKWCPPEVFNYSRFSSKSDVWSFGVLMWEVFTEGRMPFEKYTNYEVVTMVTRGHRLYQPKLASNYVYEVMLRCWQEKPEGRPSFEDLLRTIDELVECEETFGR
UniProt P29597: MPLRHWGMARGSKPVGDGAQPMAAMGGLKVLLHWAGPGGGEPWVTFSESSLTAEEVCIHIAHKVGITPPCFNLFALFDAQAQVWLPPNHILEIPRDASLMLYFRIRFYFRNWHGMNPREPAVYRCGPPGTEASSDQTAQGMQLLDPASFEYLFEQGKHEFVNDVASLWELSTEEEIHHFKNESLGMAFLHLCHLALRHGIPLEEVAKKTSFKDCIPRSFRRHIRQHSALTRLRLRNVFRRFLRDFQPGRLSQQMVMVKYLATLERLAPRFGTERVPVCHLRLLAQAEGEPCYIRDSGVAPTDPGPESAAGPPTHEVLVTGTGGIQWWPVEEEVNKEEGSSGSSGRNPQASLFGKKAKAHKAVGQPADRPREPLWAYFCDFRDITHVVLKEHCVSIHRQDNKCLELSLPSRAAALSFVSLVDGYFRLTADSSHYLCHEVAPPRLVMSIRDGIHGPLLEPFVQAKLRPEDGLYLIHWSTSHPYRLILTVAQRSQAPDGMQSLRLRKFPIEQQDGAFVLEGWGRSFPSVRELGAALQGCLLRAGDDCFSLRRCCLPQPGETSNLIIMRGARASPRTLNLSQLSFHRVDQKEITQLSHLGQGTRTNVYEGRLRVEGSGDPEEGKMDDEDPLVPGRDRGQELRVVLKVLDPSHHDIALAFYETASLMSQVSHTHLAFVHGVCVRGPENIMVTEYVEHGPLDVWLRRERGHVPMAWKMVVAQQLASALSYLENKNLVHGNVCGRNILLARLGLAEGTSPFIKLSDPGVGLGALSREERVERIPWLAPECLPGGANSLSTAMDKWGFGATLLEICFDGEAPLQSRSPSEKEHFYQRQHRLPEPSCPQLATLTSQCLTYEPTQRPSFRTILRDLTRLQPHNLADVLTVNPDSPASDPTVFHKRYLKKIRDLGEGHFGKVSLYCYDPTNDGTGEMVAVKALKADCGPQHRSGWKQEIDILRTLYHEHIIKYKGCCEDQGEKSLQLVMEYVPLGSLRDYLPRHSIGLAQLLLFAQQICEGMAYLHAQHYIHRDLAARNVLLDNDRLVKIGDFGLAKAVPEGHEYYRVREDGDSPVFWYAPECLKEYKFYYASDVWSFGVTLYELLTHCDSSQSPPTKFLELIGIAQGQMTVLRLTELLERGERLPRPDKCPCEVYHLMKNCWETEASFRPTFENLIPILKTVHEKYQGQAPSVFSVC
UniProt Q6PHR2: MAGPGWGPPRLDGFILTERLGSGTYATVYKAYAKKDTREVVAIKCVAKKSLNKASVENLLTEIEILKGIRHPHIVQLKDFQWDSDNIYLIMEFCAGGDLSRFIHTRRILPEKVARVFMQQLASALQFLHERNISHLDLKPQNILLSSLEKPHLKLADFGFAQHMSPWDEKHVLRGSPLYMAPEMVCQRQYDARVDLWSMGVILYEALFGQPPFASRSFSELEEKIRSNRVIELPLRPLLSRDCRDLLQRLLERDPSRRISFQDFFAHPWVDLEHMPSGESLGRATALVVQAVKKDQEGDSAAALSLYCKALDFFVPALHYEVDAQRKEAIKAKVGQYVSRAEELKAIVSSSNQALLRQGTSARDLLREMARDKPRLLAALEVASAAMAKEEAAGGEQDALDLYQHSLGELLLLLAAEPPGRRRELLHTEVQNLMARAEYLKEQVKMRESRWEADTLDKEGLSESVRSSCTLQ
UniProt P31749: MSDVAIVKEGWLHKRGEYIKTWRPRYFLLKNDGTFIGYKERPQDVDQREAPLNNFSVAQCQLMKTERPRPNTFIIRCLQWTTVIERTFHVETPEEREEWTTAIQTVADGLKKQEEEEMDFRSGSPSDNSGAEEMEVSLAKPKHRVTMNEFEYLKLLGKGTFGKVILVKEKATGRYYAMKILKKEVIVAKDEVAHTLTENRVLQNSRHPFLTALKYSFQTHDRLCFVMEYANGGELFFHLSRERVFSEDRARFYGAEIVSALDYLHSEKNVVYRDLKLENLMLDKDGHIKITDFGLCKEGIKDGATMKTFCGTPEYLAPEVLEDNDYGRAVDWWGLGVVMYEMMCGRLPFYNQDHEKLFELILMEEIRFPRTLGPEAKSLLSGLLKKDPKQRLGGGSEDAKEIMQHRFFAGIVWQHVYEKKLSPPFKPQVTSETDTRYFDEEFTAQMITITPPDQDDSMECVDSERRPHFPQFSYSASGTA

Assays:
Details in all cases: K562; 2-18 h
[1] = biological target: RET (UniProt P07949); assay: kinase-Nluc reporter destabilization hit call (1 = scored as downregulated) (binary); higher = compound decreases kinase abundance
[2] = biological target: RET_M918T (clone: RET_mut) (UniProt P07949); assay: as above
[3] = biological target: RIOK1 (UniProt Q9BRS2); assay: as above
[4] = biological target: RIPK1 (UniProt Q13546); assay: as above
[5] = biological target: RIPK2 (UniProt O43353); assay: as above
[6] = biological target: ROR2 (UniProt Q01974); assay: as above
[7] = biological target: RPS6KA1 (UniProt Q15418); assay: as above
[8] = biological target: SPHK1 (UniProt Q9NYA1); assay: as above
[9] = biological target: SRC (UniProt P12931); assay: as above
[10] = biological target: STK24 (UniProt Q9Y6E0); assay: as above
[11] = biological target: STK38 (UniProt Q15208); assay: as above
[12] = biological target: SYK (UniProt P43405); assay: as above
[13] = biological target: TEC (UniProt P42680); assay: as above
[14] = biological target: TYK2 (UniProt P29597); assay: as above
[15] = biological target: ULK3 (UniProt Q6PHR2); assay: as above
[16] = biological target: YES1 (UniProt P07947); assay: as above
[17] = biological target: ZAK (UniProt Q9NYL2); assay: as above
[18] = biological target: ZAP70 (UniProt P43403); assay: as above
[19] = biological target: ABL1 (UniProt P00519); assay: number of time points (of 5) at which kinase-Nluc abundance scored as decreased, DMSO-normalised (count); higher = more persistent destabilization
[20] = biological target: AKT1 (UniProt P31749); assay: as above

COc1ccc(Nc2ncc(C(F)(F)F)c(NC3CC3)n2)cc1OC (10 µM)
0: number of time points [20]
4: number of time points [19]
inactive: kinase-Nluc reporter destabilization hit call [1] 0 | kinase-Nluc reporter destabilization hit call [2] 0 | kinase-Nluc reporter destabilization hit call [3] 0 | kinase-Nluc reporter destabilization hit call [4] 0 | kinase-Nluc reporter destabilization hit call [5] 0 | kinase-Nluc reporter destabilization hit call [6] 0 | kinase-Nluc reporter destabilization hit call [7] 0 | kinase-Nluc reporter destabilization hit call [8] 0 | kinase-Nluc reporter destabilization hit call [9] 0 | kinase-Nluc reporter destabilization hit call [10] 0 | kinase-Nluc reporter destabilization hit call [11] 0 | kinase-Nluc reporter destabilization hit call [12] 0 | kinase-Nluc reporter destabilization hit call [13] 0 | kinase-Nluc reporter destabilization hit call [14] 0 | kinase-Nluc reporter destabilization hit call [15] 0 | kinase-Nluc reporter destabilization hit call [16] 0 | kinase-Nluc reporter destabilization hit call [17] 0 | kinase-Nluc reporter destabilization hit call [18] 0

CC(C)n1c(=O)n(C)c2cnc3cc(F)c(-c4ccc(OCCCN5CCCCC5)nc4)cc3c21 (10 µM)
0: number of time points [19] | number of time points [20]
inactive: kinase-Nluc reporter destabilization hit call [1] 0 | kinase-Nluc reporter destabilization hit call [2] 0 | kinase-Nluc reporter destabilization hit call [3] 0 | kinase-Nluc reporter destabilization hit call [4] 0 | kinase-Nluc reporter destabilization hit call [5] 0 | kinase-Nluc reporter destabilization hit call [6] 0 | kinase-Nluc reporter destabilization hit call [7] 0 | kinase-Nluc reporter destabilization hit call [8] 0 | kinase-Nluc reporter destabilization hit call [9] 0 | kinase-Nluc reporter destabilization hit call [10] 0 | kinase-Nluc reporter destabilization hit call [11] 0 | kinase-Nluc reporter destabilization hit call [12] 0 | kinase-Nluc reporter destabilization hit call [13] 0 | kinase-Nluc reporter destabilization hit call [14] 0 | kinase-Nluc reporter destabilization hit call [15] 0 | kinase-Nluc reporter destabilization hit call [16] 0 | kinase-Nluc reporter destabilization hit call [17] 0 | kinase-Nluc reporter destabilization hit call [18] 0

COc1cc2c(cc1OC)/C(=C/c1ccc(O)cc1)C(=O)N2 (10 µM)
inactive: kinase-Nluc reporter destabilization hit call [1] 0 | kinase-Nluc reporter destabilization hit call [2] 0 | kinase-Nluc reporter destabilization hit call [3] 0 | kinase-Nluc reporter destabilization hit call [4] 0 | kinase-Nluc reporter destabilization hit call [5] 0 | kinase-Nluc reporter destabilization hit call [6] 0 | kinase-Nluc reporter destabilization hit call [7] 0 | kinase-Nluc reporter destabilization hit call [8] 0 | kinase-Nluc reporter destabilization hit call [9] 0 | kinase-Nluc reporter destabilization hit call [10] 0 | kinase-Nluc reporter destabilization hit call [11] 0 | kinase-Nluc reporter destabilization hit call [12] 0 | kinase-Nluc reporter destabilization hit call [13] 0 | kinase-Nluc reporter destabilization hit call [14] 0 | kinase-Nluc reporter destabilization hit call [15] 0 | kinase-Nluc reporter destabilization hit call [16] 0 | kinase-Nluc reporter destabilization hit call [17] 0 | kinase-Nluc reporter destabilization hit call [18] 0
0: number of time points [19] | number of time points [20]

C=CC(=O)N1CC[C@@H](Oc2nc(Nc3ccc(N4CCC(N5CCN(C)CC5)CC4)cc3)c(C(N)=O)nc2CC)C1 [Naquotinib (mesylate)] (2.5 µM)
inactive: kinase-Nluc reporter destabilization hit call [1] 0 | kinase-Nluc reporter destabilization hit call [2] 0 | kinase-Nluc reporter destabilization hit call [3] 0 | kinase-Nluc reporter destabilization hit call [4] 0 | kinase-Nluc reporter destabilization hit call [5] 0 | kinase-Nluc reporter destabilization hit call [6] 0 | kinase-Nluc reporter destabilization hit call [7] 0 | kinase-Nluc reporter destabilization hit call [8] 0 | kinase-Nluc reporter destabilization hit call [9] 0 | kinase-Nluc reporter destabilization hit call [10] 0 | kinase-Nluc reporter destabilization hit call [11] 0 | kinase-Nluc reporter destabilization hit call [12] 0 | kinase-Nluc reporter destabilization hit call [13] 0 | kinase-Nluc reporter destabilization hit call [14] 0 | kinase-Nluc reporter destabilization hit call [15] 0 | kinase-Nluc reporter destabilization hit call [16] 0 | kinase-Nluc reporter destabilization hit call [17] 0 | kinase-Nluc reporter destabilization hit call [18] 0
0: number of time points [19] | number of time points [20]

CC1(N)CCN(c2cccnc2NC(=O)c2nc(-c3ncccc3C(F)(F)F)cnc2N)CC1 [Darovasertib] (10 µM)
0: number of time points [19] | number of time points [20]
inactive: kinase-Nluc reporter destabilization hit call [1] 0 | kinase-Nluc reporter destabilization hit call [2] 0 | kinase-Nluc reporter destabilization hit call [3] 0 | kinase-Nluc reporter destabilization hit call [4] 0 | kinase-Nluc reporter destabilization hit call [5] 0 | kinase-Nluc reporter destabilization hit call [6] 0 | kinase-Nluc reporter destabilization hit call [7] 0 | kinase-Nluc reporter destabilization hit call [8] 0 | kinase-Nluc reporter destabilization hit call [9] 0 | kinase-Nluc reporter destabilization hit call [10] 0 | kinase-Nluc reporter destabilization hit call [11] 0 | kinase-Nluc reporter destabilization hit call [12] 0 | kinase-Nluc reporter destabilization hit call [13] 0 | kinase-Nluc reporter destabilization hit call [14] 0 | kinase-Nluc reporter destabilization hit call [15] 0 | kinase-Nluc reporter destabilization hit call [16] 0 | kinase-Nluc reporter destabilization hit call [17] 0 | kinase-Nluc reporter destabilization hit call [18] 0

COc1cc2ncnc(Nc3ccc(O)c(Br)c3)c2cc1OC (10 µM)
inactive: kinase-Nluc reporter destabilization hit call [1] 0 | kinase-Nluc reporter destabilization hit call [2] 0 | kinase-Nluc reporter destabilization hit call [3] 0 | kinase-Nluc reporter destabilization hit call [4] 0 | kinase-Nluc reporter destabilization hit call [5] 0 | kinase-Nluc reporter destabilization hit call [6] 0 | kinase-Nluc reporter destabilization hit call [7] 0 | kinase-Nluc reporter destabilization hit call [8] 0 | kinase-Nluc reporter destabilization hit call [9] 0 | kinase-Nluc reporter destabilization hit call [10] 0 | kinase-Nluc reporter destabilization hit call [11] 0 | kinase-Nluc reporter destabilization hit call [12] 0 | kinase-Nluc reporter destabilization hit call [13] 0 | kinase-Nluc reporter destabilization hit call [14] 0 | kinase-Nluc reporter destabilization hit call [15] 0 | kinase-Nluc reporter destabilization hit call [16] 0 | kinase-Nluc reporter destabilization hit call [17] 0 | kinase-Nluc reporter destabilization hit call [18] 0
0: number of time points [19] | number of time points [20]

COc1cc(N2CCOCC2)ccc1Nc1ncc(F)c(Nc2ccccc2NS(C)(=O)=O)n1 (10 µM)
0: number of time points [19] | number of time points [20]
inactive: kinase-Nluc reporter destabilization hit call [1] 0 | kinase-Nluc reporter destabilization hit call [2] 0 | kinase-Nluc reporter destabilization hit call [3] 0 | kinase-Nluc reporter destabilization hit call [4] 0 | kinase-Nluc reporter destabilization hit call [5] 0 | kinase-Nluc reporter destabilization hit call [6] 0 | kinase-Nluc reporter destabilization hit call [7] 0 | kinase-Nluc reporter destabilization hit call [8] 0 | kinase-Nluc reporter destabilization hit call [9] 0 | kinase-Nluc reporter destabilization hit call [10] 0 | kinase-Nluc reporter destabilization hit call [11] 0 | kinase-Nluc reporter destabilization hit call [12] 0 | kinase-Nluc reporter destabilization hit call [13] 0 | kinase-Nluc reporter destabilization hit call [14] 0 | kinase-Nluc reporter destabilization hit call [15] 0 | kinase-Nluc reporter destabilization hit call [16] 0 | kinase-Nluc reporter destabilization hit call [17] 0 | kinase-Nluc reporter destabilization hit call [18] 0

COC(=O)[C@H](CCSC)NC(=O)c1ccc(NC[C@@H](N)CS)cc1-c1ccccc1 [FTI-277 (hydrochloride)] (10 µM)
inactive: kinase-Nluc reporter destabilization hit call [1] 0 | kinase-Nluc reporter destabilization hit call [2] 0 | kinase-Nluc reporter destabilization hit call [3] 0 | kinase-Nluc reporter destabilization hit call [4] 0 | kinase-Nluc reporter destabilization hit call [5] 0 | kinase-Nluc reporter destabilization hit call [6] 0 | kinase-Nluc reporter destabilization hit call [7] 0 | kinase-Nluc reporter destabilization hit call [8] 0 | kinase-Nluc reporter destabilization hit call [9] 0 | kinase-Nluc reporter destabilization hit call [10] 0 | kinase-Nluc reporter destabilization hit call [11] 0 | kinase-Nluc reporter destabilization hit call [12] 0 | kinase-Nluc reporter destabilization hit call [13] 0 | kinase-Nluc reporter destabilization hit call [14] 0 | kinase-Nluc reporter destabilization hit call [15] 0 | kinase-Nluc reporter destabilization hit call [16] 0 | kinase-Nluc reporter destabilization hit call [17] 0 | kinase-Nluc reporter destabilization hit call [18] 0
0: number of time points [19] | number of time points [20]

Cc1cc(C(=O)NOCCO)c(Nc2ccc(I)cc2F)n(C)c1=O (10 µM)
0: number of time points [20]
2: number of time points [19]
inactive: kinase-Nluc reporter destabilization hit call [1] 0 | kinase-Nluc reporter destabilization hit call [2] 0 | kinase-Nluc reporter destabilization hit call [3] 0 | kinase-Nluc reporter destabilization hit call [4] 0 | kinase-Nluc reporter destabilization hit call [5] 0 | kinase-Nluc reporter destabilization hit call [6] 0 | kinase-Nluc reporter destabilization hit call [7] 0 | kinase-Nluc reporter destabilization hit call [8] 0 | kinase-Nluc reporter destabilization hit call [9] 0 | kinase-Nluc reporter destabilization hit call [10] 0 | kinase-Nluc reporter destabilization hit call [11] 0 | kinase-Nluc reporter destabilization hit call [12] 0 | kinase-Nluc reporter destabilization hit call [13] 0 | kinase-Nluc reporter destabilization hit call [14] 0 | kinase-Nluc reporter destabilization hit call [15] 0 | kinase-Nluc reporter destabilization hit call [16] 0 | kinase-Nluc reporter destabilization hit call [17] 0 | kinase-Nluc reporter destabilization hit call [18] 0
